{"source": "paper PMC8956744", "key": {"recombinant fibulin-1": {"biological_target": "T1, recombinant fibulin-1 (UniProt P23142)", "T1 sequence": "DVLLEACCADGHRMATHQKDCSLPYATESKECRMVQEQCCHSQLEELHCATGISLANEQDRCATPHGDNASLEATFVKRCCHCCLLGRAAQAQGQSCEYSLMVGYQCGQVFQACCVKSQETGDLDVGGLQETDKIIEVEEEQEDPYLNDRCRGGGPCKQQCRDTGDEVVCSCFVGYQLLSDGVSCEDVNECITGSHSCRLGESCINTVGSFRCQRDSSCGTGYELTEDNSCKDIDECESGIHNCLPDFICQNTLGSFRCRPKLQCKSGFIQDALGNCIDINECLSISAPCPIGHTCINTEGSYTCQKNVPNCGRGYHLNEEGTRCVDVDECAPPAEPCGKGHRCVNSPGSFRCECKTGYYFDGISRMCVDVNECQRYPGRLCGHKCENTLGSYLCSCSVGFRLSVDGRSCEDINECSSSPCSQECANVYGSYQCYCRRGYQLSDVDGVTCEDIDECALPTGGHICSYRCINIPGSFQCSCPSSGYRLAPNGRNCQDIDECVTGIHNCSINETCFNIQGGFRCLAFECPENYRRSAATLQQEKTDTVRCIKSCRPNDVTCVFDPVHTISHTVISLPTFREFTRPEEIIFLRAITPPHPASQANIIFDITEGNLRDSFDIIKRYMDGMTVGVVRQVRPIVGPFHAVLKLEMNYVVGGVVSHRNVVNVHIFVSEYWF", "test": "SPR; BIAcore 2000; fibulin-1, tenascin-C (FNIII 3-5) or tenascin-R (FNIII 3-5) immobilised in CM5 flow cells to 811, 662 and 233 RU; aggrecan G3 domains (E1E2LCt) injected at 50, 100 or 200 nM, 50 µl/min; 10 mM HEPES-HCl, 150 mM NaCl, 2 mM CaCl2, 0.005% P20, pH 7.5; both purified"}, "[1]": {"biological_target": "recombinant tenascin-C (fibronectin type III repeats 3–5) (UniProt P24821)", "test": "SPR; BIAcore 2000; fibulin-1, tenascin-C (FNIII 3-5) or tenascin-R (FNIII 3-5) immobilised in CM5 flow cells to 811, 662 and 233 RU; aggrecan G3 domains (E1E2LCt) injected at 50, 100 or 200 nM, 50 µl/min; 10 mM HEPES-HCl, 150 mM NaCl, 2 mM CaCl2, 0.005% P20, pH 7.5; both purified"}}, "note": "These are yes or no findings as the source states them, for the method shown. A result given as binding can be weak or reduced; the word gives no strength."}
{"substance": "recombinant wild-type aggrecan G3 domain (E1E2LCt splice form) (from UniProt P16112-4) (domain or fragment)", "values": [{"measurement": "binding", "setting": "recombinant fibulin-1", "result": "binds"}, {"measurement": "binding", "setting": "[1]", "result": "binds"}]}
